Data from publication PMC13434269.
Like-named read-outs stand apart in the source and are kept apart here. No constants are given. Whether binding was seen depends on the method and setting. Binding seen in cells or lysates may run through a third protein. Some results given as binding are weak or reduced against the parent protein; the word gives no strength. Blank lines part the entries; values can stand above or below the molecule they belong to.

Sequences of proteins named here, by UniProt entry; tags and fusion partners are left off.
UniProt Q8VBV3: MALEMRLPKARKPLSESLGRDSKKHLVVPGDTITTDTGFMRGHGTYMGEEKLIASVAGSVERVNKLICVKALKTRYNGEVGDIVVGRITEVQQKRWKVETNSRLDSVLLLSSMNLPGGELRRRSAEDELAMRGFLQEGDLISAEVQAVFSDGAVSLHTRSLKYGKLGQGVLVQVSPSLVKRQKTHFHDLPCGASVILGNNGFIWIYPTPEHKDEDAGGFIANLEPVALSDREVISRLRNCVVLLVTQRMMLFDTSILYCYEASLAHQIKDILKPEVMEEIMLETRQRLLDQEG
UniProt Q7TQK4: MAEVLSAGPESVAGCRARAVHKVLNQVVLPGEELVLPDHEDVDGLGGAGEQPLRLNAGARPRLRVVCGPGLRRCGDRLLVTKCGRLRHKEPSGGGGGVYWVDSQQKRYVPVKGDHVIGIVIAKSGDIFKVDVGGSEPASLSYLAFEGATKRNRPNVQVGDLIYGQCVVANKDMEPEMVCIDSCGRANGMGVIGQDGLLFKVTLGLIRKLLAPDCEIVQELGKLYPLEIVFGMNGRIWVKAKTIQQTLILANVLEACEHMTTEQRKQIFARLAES
UniProt Q8BTW3: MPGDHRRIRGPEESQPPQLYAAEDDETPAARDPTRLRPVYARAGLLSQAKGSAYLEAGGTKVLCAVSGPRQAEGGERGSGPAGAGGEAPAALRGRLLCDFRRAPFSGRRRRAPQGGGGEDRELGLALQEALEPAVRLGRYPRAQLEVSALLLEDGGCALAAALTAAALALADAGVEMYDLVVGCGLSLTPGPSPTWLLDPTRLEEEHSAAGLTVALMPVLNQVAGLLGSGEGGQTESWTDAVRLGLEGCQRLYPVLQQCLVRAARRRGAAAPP
UniProt Q9D753: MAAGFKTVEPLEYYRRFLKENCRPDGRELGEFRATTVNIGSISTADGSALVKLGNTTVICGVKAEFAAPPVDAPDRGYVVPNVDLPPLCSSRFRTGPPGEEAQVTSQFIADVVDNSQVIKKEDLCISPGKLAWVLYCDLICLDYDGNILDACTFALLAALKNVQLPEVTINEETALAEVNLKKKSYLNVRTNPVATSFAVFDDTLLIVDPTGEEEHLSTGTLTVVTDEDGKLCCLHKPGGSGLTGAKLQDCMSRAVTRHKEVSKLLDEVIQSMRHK
UniProt Q9JHI7: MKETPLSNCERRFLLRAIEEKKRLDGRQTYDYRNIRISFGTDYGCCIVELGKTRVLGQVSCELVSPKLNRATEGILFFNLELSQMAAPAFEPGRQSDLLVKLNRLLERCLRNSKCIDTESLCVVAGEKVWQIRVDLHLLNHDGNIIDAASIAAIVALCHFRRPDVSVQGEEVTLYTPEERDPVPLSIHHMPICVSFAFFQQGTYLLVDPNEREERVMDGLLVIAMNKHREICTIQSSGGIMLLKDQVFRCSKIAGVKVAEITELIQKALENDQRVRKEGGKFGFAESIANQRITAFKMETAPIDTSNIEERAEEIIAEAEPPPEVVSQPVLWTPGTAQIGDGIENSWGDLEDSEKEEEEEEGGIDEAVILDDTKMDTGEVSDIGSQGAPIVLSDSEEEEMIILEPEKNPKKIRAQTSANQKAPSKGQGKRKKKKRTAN
UniProt Q8C0S1: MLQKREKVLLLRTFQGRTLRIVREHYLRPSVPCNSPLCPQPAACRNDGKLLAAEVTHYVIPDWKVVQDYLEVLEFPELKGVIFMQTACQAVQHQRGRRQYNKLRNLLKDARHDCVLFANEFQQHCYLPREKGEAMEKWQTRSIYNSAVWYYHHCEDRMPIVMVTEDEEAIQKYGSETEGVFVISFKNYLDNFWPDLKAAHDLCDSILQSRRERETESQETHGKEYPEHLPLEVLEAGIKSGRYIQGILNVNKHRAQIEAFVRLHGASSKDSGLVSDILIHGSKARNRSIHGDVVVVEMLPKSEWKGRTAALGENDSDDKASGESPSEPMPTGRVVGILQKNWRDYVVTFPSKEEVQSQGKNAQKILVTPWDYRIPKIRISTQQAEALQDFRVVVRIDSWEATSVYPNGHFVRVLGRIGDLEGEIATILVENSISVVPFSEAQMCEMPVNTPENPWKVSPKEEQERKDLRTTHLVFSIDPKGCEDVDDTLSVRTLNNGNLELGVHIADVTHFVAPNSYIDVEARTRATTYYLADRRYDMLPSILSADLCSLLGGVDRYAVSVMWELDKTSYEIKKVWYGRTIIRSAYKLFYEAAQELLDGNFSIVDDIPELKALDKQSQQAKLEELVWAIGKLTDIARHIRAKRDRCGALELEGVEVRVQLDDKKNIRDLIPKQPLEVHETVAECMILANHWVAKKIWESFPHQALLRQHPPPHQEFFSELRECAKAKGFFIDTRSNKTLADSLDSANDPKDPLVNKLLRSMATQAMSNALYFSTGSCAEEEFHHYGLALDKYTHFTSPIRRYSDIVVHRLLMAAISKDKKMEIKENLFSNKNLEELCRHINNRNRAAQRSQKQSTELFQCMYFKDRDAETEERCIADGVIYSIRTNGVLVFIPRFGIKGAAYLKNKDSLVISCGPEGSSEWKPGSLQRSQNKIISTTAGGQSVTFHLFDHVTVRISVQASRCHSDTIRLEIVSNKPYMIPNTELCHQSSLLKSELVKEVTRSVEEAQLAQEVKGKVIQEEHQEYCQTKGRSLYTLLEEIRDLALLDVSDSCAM
UniProt Q921I9: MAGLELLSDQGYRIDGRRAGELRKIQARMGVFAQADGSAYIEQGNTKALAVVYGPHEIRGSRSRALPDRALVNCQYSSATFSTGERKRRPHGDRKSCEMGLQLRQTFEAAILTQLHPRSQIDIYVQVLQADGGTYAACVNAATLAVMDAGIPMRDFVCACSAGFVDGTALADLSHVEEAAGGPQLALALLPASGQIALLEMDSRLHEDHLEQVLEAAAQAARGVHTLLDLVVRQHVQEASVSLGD
UniProt Q9D0M0: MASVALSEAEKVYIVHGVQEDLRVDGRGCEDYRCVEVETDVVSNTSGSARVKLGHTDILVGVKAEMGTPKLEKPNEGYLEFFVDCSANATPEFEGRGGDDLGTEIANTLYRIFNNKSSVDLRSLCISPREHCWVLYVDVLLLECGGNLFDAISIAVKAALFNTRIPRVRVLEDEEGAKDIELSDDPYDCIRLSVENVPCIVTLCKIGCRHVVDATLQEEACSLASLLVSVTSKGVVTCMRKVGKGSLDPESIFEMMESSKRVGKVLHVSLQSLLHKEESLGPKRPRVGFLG

Key:
[1] = molecular target: Exosc2-mCherry-V5 (mouse) (UniProt Q8VBV3); assay: co-IP; V5-Trap Magnetic Agarose on 1 mg lysate of mESCs expressing Exosc2-mCherry-V5, 4 °C 3-4 h, IP lysis buffer (50 mM Tris-HCl pH 7.5, 150 mM NaCl, 1% Igepal CA-630, 0.5 mM EDTA), Western blot of bead-bound proteins; also after iCas9 depletion of Exosc6, Exosc8, Exosc9, Exosc5, Exosc1 or control Olfr10 for 48 or 72 h
[2] = molecular target: Exosc2-mScarlet3-SPOT (mouse) (UniProt Q8VBV3); assay: co-IP; SPOT-Trap Magnetic Agarose on lysate of Tir1 (control), AID-Exosc3 and Exosc6-AID mESCs expressing Exosc2-mScarlet3-SPOT, with acute depletion by IAA, Western blot of input and bead-bound proteins
[3] = molecular target: Exosc2-mCherry-V5 (mouse) (UniProt Q8VBV3); assay: co-IP; V5-Trap Magnetic Agarose on 1 mg lysate of mESCs expressing Exosc2-mCherry-V5, 4 °C 3-4 h, IP lysis buffer (50 mM Tris-HCl pH 7.5, 150 mM NaCl, 1% Igepal CA-630, 0.5 mM EDTA), Western blot of bead-bound proteins; also after iCas9 depletion of Exosc6, Exosc8, Exosc9, Exosc5, Exosc1 or control Olfr10 for 48 or 72 h; remark: listed apart in the source

Molecule: Exosc1 (from UniProt Q9DAA6-1 1-195)
binding [1]: binds

Molecule: Exosc3 (from UniProt Q7TQK4 1-274)
binding [1]: binds

Molecule: Exosc6 (from UniProt Q8BTW3 1-273)
binding [2]: binds
binding [1]: binds

Molecule: Exosc8 (from UniProt Q9D753 1-276)
binding [2]: binds
binding [1]: binds

Molecule: Exosc9 (from UniProt Q9JHI7 1-438)
binding [2]: binds
binding [1]: binds

B1: Dis3 (enzyme, UniProt Q9CSH3 1-958)
chain: MLRSKTFLKKTRAGGVVKIVREHYLRDDIGCGAPACSACGGAHAGPALELQPRDQASSLCPWPHYLLPDTNVLLHQIDVLEHPAIRNVIVLQTVMQEVRNRSAPIYKRIRDVTNNQEKHFYTFTNEHHKETYIEQEQGENANDRNDRAIRVAAKWYNEHLKRVAADSQLQVILITNDRKNKEKAVQEGIPAFTCEEYVKSLTANPELIDRLAYLSDEMNEIESGKIIFSEHLPLSKLQQGIKSGSYLQGTFRASRENYLEATVWIHGDKEEEKEILIQGIKHLNRAVHEDIVAVELLPRSQWVAPSSVVLDDEGQNEDDVEKDEERELLLKTAVSEKMLRPTGRVVGIIKRNWRPYCGMLSKSDIKESRRHLFTPADKRIPRIRIETRQASALEGRRIIVAIDGWPRNSRYPNGHFVKNLGDVGEKETETEVLLLEHDVPHQPFSQAVLSFLPRMPWSITEEDMKNREDLRHLCVCSVDPPGCTDIDDALHCRELSNGNLEVGVHIADVSHFIRPGNALDQESARRGTTVYLCEKRIDMVPELLSSNLCSLRSNVDRLAFSCIWEMNHNAEILKTRFTKSVINSKASLTYAEAQMRIDSAAMNDDITTSLRGLNQLAKILKKGRIEKGALTLSSPEIRFHMDSETHDPIDLQTKELRETNSMVEEFMLLANISVAKKIHEEFSEHALLRKHPAPPPSNYDILVKAAKSKNLQIKTDTAKSLADSLDRAESPDFPYLNTLLRILATRCMMQAVYFCSGMDNDFHHYGLASPIYTHFTSPIRRYADIIVHRLLAVAIGADCTYPELTDKHKLSDICKNLNFRHKMAQYAQRASVAFHTQLFFKSKGIVSEEAYILFVRKNAIVVLIPKYGLEGTVFFEEKDKPKPRLAYDDEIPSLRIEGTVFHVFDKVKVKITLDSSNLQHQKIRMALVEPQIPGINIPPNVADKALTAPGGKKRKLEK
binding [3]: binds weakly

More lines, now with the values ahead:

binding [1]: binds
Molecule: Dis3L (from UniProt Q8C0S1 1-1053) (enzyme)

binding [2]: binds
binding [1]: binds
Molecule: Exosc4 (from UniProt Q921I9 1-245)

binding [2]: binds
binding [1]: binds
Molecule: Exosc7 (from UniProt Q9D0M0 1-291)

binding [3]: binds
B2: Exosc10 (enzyme, UniProt P56960 1-887)
chain: MAPPSPREHQSAPATSATKPDAEMVLPGFPDADSFVKFALGSVVAVTKASGGLPQFGDEYDFYRSFPAFQAFCETQGDRLLQCMSRVMQYHGCRSNIKDRSKVTELEDKFDLLVDTNDVILERVGMLLDEASGVNKHQQPVLPAGLQVPKTIVSSWNRKAGEYGKKAKSETFRLLHAKNIVRPQLRFREKIDNSNTPFLPKIFVKPNARKPLPLALSKERRERPQDRPEDLDVPPALADFIHQQRTQQVEQDMFAHPYQYELDHFTPPQSVLQRPKPQLYRAVGETPCHLVSSLDELVELNEKLLGCQEFAVDLEHHSYRSFLGLTCLMQISTRTEDFIVDTLELRSDMYILNESLTDPAIVKVFHGADSDIEWLQKDFGLYVVNMFDTHQAARLLNLARHSLDHLLRLYCGVESNKQYQLADWRIRPLPEEMLSYARDDTHYLLYIYDRMRLELWERGNHQPVQLQVVWQRSRDICLKKFVKPIFTDESYLELYRKQKKHLNSQQLTAFQLLFAWRDKTARREDESYGYVLPNHMMLKIAEELPKEPQGIIACCNPVPPLVRQQINEMHLLIQQAREMPLLKSENAAGVRKSGPLPSAERLENDLFGPHDCSHAPPDNYQNTSTDGTLPLQKQPSLFTEGKEETSVDAGCLLATAVITLFSEPNTEEGGKTPLTVAQKKAQNIMQSFENPFRMFLPSLEHKAHISQAAKFDPSSKIYEISNRWKLASQVQVQKEPKEATKKKVAEQTAAREEAKEEAAAGVLEQAIPVRQQAALENATKKRERATSDLRTIEQKQEKKRLKSSKKAKDPDPPGKDFSPYDYSQSDFRAFAGDSKSKPSSQFDPNKLAPSGKKGVGAKKCKQSVGNKSMSFAVGKSDRGFRHNWPKR
